# Experimental data taken from patent publication EP0121013A1, “Oral compositions” (UNILEVER PLC, priority 1983, dated 1984).
# Test: Blind comparative taste test with a panel of 3 assessors
# Conditions: for taste compared with SnF2: blind test, three judges, equal molar concentrations
smiles,measurement,setting,value
"N.N.[F-].[F-].[F-].[F-].[F-].[F-].[Sn] [Sn(NH4)2F6, stannic ammonium fluoride]",taste compared with Na2SnF6,"20 sec. rinse with 10 ml of test solution containing 1000 ppm F, blind, unanimous decision of three judges",significantly less metallic taste than Na2SnF6
same,taste compared with SnF2,,significantly less metallic taste than SnF2
same,taste compared with SnF2,listed as Sn(NH4)2g6,much less astringent and metallic tasting
